Test results: US9844546B2, “Antibody against human HIF hydroxylase” (OXFORD UNIVERSITY INNOVATION LIMITED, priority 2001, dated 2017)
At least one structure is not confirmed: it was looked up by name or label, or the drawing left a doubt.

Tested on: HIF-α prolyl-hydroxylase (HIF-PH) of cell extract
Experiment: Modifying activity (HIF-PH) of cell extract on HIF substrate (Gal/HIF-1α549-582/VP16 or 19:WT), pVHL capture assay
Type: biochemical, mammalian
Conditions: 2 mM
Method: The unlabelled HIF-1α substrate was immunopurified on beads, washed, and aliquots incubated under different test conditions in buffer or cell extract. After further washing, the beads were assayed for ability to interact with 35-S labelled pVHL IVTT (21) which was then visualised by fluorography.
The capture of labelled pVHL by different HIF substrates was monitored after exposure to various test conditions.
We went on to test a series of 2-oxoglutarate analogues which act as competitive inhibitors of this class of enzyme (29) for ability to inhibit HIF-PH as assessed by the ability of cell extracts to modify either HIF polypeptide (19:WT) or a HIF fusion protein (Gal/HIF-1α549-582/VP16) so as to promote pVHL capture. […] In one such experiment the effect of N-oxalylglycine on pVHL capture by a biotinylated HIF polypeptides as substrate was monitored. The WT:19 and 19:Pro564Hyp polypeptides described above were used as substrates. […] The effect of dimethyl-oxalyglycine on HIF-1α expression was also studied. HIF-1α immunoblot analysis of extracts of Hep3B and U2OS cells exposed to dimethyl-oxalylgylcine (0, 0.1 or 1.0 mM) for 6 hours was carried out. […]

SMILES: O=C1O[C@H]([C@@H](O)CO)C(O)=C1O [ascorbate, reference compound]
- effect on modifying activity of cell extract (pVHL capture by Gal/HIF-1α549-582/VP16): enhance the modifying activity of cell extract
